# From PubChem BioAssay AID2315 (National Center for Advancing Translational Sciences (NCATS), 2010)
# Only a part is listed here, and it is no random draw. Activity calls are given as the source filed them. Rule as the data show it: active = inhibition mostly above about 28% (no sharp cut-off); inactive = mostly below about 43%.
# Assay: A qHTS for Small Molecule Inhibitors of Shiga Toxin; also: 0% is about no effect
# Conditions: Vero cells, Shiga toxin protein synthesis inhibition reporter; at 38.7 µM; stronger effect = higher value
row,Compound,inhibition
1,COc1ccc(/C(N)=N/OC(=O)CSc2ccccc2)cc1,active: 70.9%
